# Test results published in PubChem BioAssay AID540276 (National Center for Advancing Translational Sciences (NCATS), 2011).
# Where “and” joins values, the source holds several entries; their conditions need not be identical. Identical values can stand only once. Hit rate of the full screen: of about 300,000 compounds, about 5,400 (1.8%) were called active. The inconclusive results got no clear call from the source; some entries with a clear call stand among them for comparison. Calls come from the whole dose curve; tested in HEK293 cells. A potency beside an inconclusive call is a rough fit, not a confirmed value.
# Test: qHTS for inhibitors of binding or entry into cells for Marburg Virus
# Settings: Marburg virus pseudotyped entry inhibition, cell reporter; series mostly up to 37.8 µM
# Potency is the fitted concentration of half-maximal effect.
row,Structure (SMILES),Potency
1,O=C(Nc1ccncc1)Nc1cc(Cl)ccc1Cl,inactive
2,COc1ccc(-c2noc(C(=O)NCc3ccc(F)cc3)n2)cc1OC,"inconclusive: 28.2 µM [inhibitor, single point]"
3,CCc1noc(C)c1C(=O)NCCc1ccccc1,"inconclusive: 35.5 µM [activator, partial curve, poor fit]"
4,CC(Oc1ccccc1F)C(=O)Nc1ccc2ccccc2c1 (centres undefined),"inconclusive: 3.98 µM [inhibitor, full curve, poor fit]"
5,O=C1NCC(Nc2ccc(Cl)cc2)C(=O)N1 (centres undefined),inactive
6,COCC(=O)Nc1nc2n(n1)C(c1ccc(Cl)cc1)CC(c1ccc(OC)cc1)N2 (centres undefined),inactive
7,O=S(=O)(NCc1ccco1)N1CCCCCC1,inactive
8,COCCN=c1scc(-c2cc(OC)ccc2OC)n1/N=C/c1c[nH]c2ccccc12,"inconclusive: 14.1 µM [inhibitor, partial curve, poor fit]"
9,COc1cccc(NC(=O)c2ccccc2-c2nc(-c3ccc(F)cc3)no2)c1,"inconclusive: 3.55 µM [inhibitor, partial curve, poor fit]"
10,Cc1ccc(Cn2cc(C(=O)c3ccc(C)cc3)c(=O)c3ccc(C)nc32)cc1,"inconclusive: 31.6 µM [inhibitor, single point]"
11,Cn1c(COc2ccc(Cl)cc2)nnc1SCc1ncc(-c2ccccc2)o1,inactive
12,CC(=O)N1CCN(S(=O)(=O)c2cccc(C(=O)Nc3ccc4c(c3)CCC4)c2)CC1,"inconclusive: 22.4 µM [inhibitor, single point]"
13,COc1cccc(NC(=O)c2nc(S(C)(=O)=O)ncc2Cl)c1,"inconclusive: 8.91 µM [inhibitor, partial curve, poor fit]"
14,C/C(=N\NC(=O)c1ccccc1O)C1C(=O)c2ccccc2C1=O,inactive
15,COc1ccc(C(=O)NNC(=O)CN2CCC(n3nnc4cc(F)ccc43)CC2)cc1,"inconclusive: 0.58 µM [activator, single point]"
16,Cc1cc(SCC(=O)Nc2ccc(Cl)cc2)nc2ccccc12,"inconclusive: 2.82 µM [inhibitor, partial curve, poor fit]"
17,COc1ccc(C)cc1NS(=O)(=O)c1ccc(NC(=O)CN(c2cc([N+](=O)[O-])ccc2C)S(C)(=O)=O)cc1,active: 3.66 µM
18,O=C(/C=C\c1ccccc1OC(=O)c1ccccc1F)c1cc2ccccc2o1,"inconclusive: 35.5 µM [inhibitor, single point]"
19,C=CCN(C(=O)CN1CCOCC1)c1nc(C)c(-c2ccccc2)s1,"inconclusive: 7.94 µM [activator, partial curve, poor fit]"
20,COc1cccc(-c2nnc(NC(=O)c3ccc(Cl)s3)o2)c1,inactive
21,Cc1cccc(C)c1OCC(=O)N1CCC(c2nc3ccccc3o2)CC1,inactive
22,O=C(Nc1ccccc1Cl)C1CCN(Cc2cnn(-c3ccccc3)c2-n2cccc2)CC1,"inconclusive: 25.9 µM [inhibitor, single point]"
23,COc1ccc2c(c1)CC/C(=C/c1ccco1)C2=O,"inconclusive: 29.1 µM [inhibitor, single point]"

row,Structure (SMILES),Potency
1,Cc1ccc(C)c(NS(=O)(=O)c2c(C)ccc3nsnc23)c1,"inconclusive: 7.08 µM [inhibitor, partial curve]"
2,COC(=O)Cc1c(C)c2cc3c(c(C)c2oc1=O)OCN(CCc1ccc(F)cc1)C3,"inconclusive: 7.08 µM [inhibitor, full curve, poor fit]"
3,CCc1ccc(NC(=O)CC2C(=O)N(c3ccc(C)cc3)C(=O)N2CCc2ccncc2)cc1 (centres undefined),"inactive and inconclusive: 8.91 µM [inhibitor, partial curve, poor fit]"
4,CN(C)CCCN(C(=O)c1ccco1)c1nc2ccc(Br)cc2s1,"inconclusive: 35.5 µM [inhibitor, single point]"
5,CCOc1cc(CNCc2cccs2)ccc1OCC(=O)NC(C)(C)C,"inconclusive: 8.2 µM [inhibitor, partial curve]"
6,COc1ccc(COC(=O)c2cccc(S(=O)(=O)N3CCN(C(C)=O)CC3)c2)cc1F,"inconclusive: 35.5 µM [inhibitor, single point]"
7,Cc1sc2c(c1C)CN(CCN1CCOCC1)CN2C(=O)c1ccccc1,inactive
8,COc1cccc(N2C(=O)C(CC(=O)Nc3ccc(F)cc3)N(CCC3=CCCCC3)C2=O)c1 (centres undefined),"inconclusive: 22.4 µM [inhibitor, single point]"
9,COC1=C(OC)C2=C(CC1)CC1C3CC4OCOC4CC3CCN1C2 (centres undefined),"inconclusive: 8.91 µM [inhibitor, partial curve, poor fit]"
10,Cc1cccc2c1N(CCOc1ccccc1)C(=O)C2=O,"inconclusive: 15.8 µM [inhibitor, single point]"
11,COc1ccc(OC)c(-n2c(SCC(=O)NCc3ccco3)nnc2-c2c[nH]c3ccccc23)c1,inactive
12,COc1ccccc1NC(CC(=O)c1ccccc1)C(=O)OCC(=O)c1ccc(F)cc1 (centres undefined),"inconclusive: 3.55 µM [activator, single point]"
13,Cc1ccc(Nc2ccc3nonc3c2[N+](=O)[O-])cc1,inactive
14,COc1ccc(CCN(C)Cc2ccc(OC)c(OCc3ccccc3)c2)cc1OC,active: 18.3 µM
15,COc1ccc(CNC(=O)CSc2cc(=O)n(C)c3ccccc23)cc1,"inconclusive: 35.5 µM [inhibitor, single point]"
16,CCCCn1c(=O)[nH]c2nc3cc(NC(C)=O)ccc3nc2c1=O,inactive
17,CC(NC(=O)CN(C)CC(=O)Nc1cccc(F)c1)c1ccccc1 (centres undefined),inactive
18,CC(C)CN(CCC(=O)O)CC(C)C,inactive
19,COCCN(C(=O)Cn1nnc2ccccc21)C(C(=O)NC1CCCCC1)c1ccc(OC)cc1OC (centres undefined),inactive
20,CC(=O)Oc1ccc(C(c2ccc(OC(C)=O)cc2)c2ccccn2)cc1,"inconclusive: 3.26 µM [activator, partial curve, poor fit]"
21,O=C(Nc1ccc2c(c1)oc1ccccc12)c1cccnc1,inactive
22,Cc1ccccc1/C=C\c1nc2ccccc2c(=O)n1Cc1ccccc1,"inconclusive: 8.91 µM [inhibitor, partial curve, poor fit]"
23,O=c1[nH]cnc2c1C(c1ccc(Cl)cc1)c1c(nc[nH]c1=O)O2,"inconclusive: 1.26 µM [activator, single point]"

row,Structure (SMILES),Potency
1,Cc1csc(SCC(=O)Nc2nccs2)n1,"inconclusive: 20 µM [activator, single point]"
2,NC(=O)CCc1nc2cc(C(F)(F)F)ccc2n(Cc2ccccc2)c1=O,"inconclusive: 35.5 µM [inhibitor, single point]"
3,CCS(=O)(=O)c1nc(S(=O)(=O)c2ccc(C)cc2)c(NCc2ccc(Cl)cc2)s1,"inconclusive: 7.94 µM [inhibitor, single point]"
4,COc1ccc(C(=O)Nc2cccc([N+](=O)[O-])c2)cc1Br,"inconclusive: 5.62 µM [inhibitor, single point]"
5,S=c1[nH]nc(-c2ccccc2)n1CC1CCCO1 (centres undefined),"inconclusive: 5.62 µM [activator, single point]"
6,COCC(=O)N(Cc1ccccc1)c1ccccn1,inactive
7,COC(=O)c1ccc2nc(NC(=O)CCS(=O)(=O)c3ccccc3)sc2c1,"inconclusive: 35.5 µM [inhibitor, single point]"
8,COc1cccc(C(=O)NNC(=O)C(=O)N2CCCCC2)c1,inactive
9,CC(Sc1nnc(Nc2ccccc2)s1)C(=O)NC1CCCc2ccccc21 (centres undefined),"inconclusive: 35.5 µM [inhibitor, single point]"
10,N#Cc1nc(COc2ccccc2Cl)oc1NCc1cccnc1,inactive
11,Cc1ccc(C)c(C2=NNC(=O)CC2)c1,inactive
12,COc1ccc(C(=O)N/C(=C\c2cn(C)c3ccccc23)C(=O)NCCCn2ccnc2)cc1OC,"inconclusive: 5.62 µM [activator, single point]"
13,O=C(Nc1ccc2c(c1)CCC2)c1cnc(Cl)c(Cl)c1,"inconclusive: 2.82 µM [activator, partial curve, poor fit]"
14,Oc1cnc2ccccc2c1CN1CCOCC1,"inconclusive: 0.708 µM [activator, full curve, poor fit]"
15,COc1cc(OC)c(NC(=O)CC(C)=O)cc1Cl,"inconclusive: 11.2 µM [activator, partial curve, poor fit]"
16,O=C(N/N=C/C(Br)=C/c1ccccc1)c1n[nH]c2c1CCC2,inactive
17,CCc1nc(Nc2ccc(O)cc2)c2oc3ccccc3c2n1,"inconclusive: 7.94 µM [inhibitor, partial curve, poor fit]"
18,Cc1ccc(NC(=O)c2nc(S(=O)(=O)Cc3cccc(C)c3)ncc2Cl)cc1,"inconclusive: 0.891 µM [inhibitor, single point]"
19,CCn1c(Sc2ccc([N+](=O)[O-])cn2)nnc1-c1ccco1,"inconclusive: 11.2 µM [inhibitor, partial curve, poor fit]"
20,Cc1ccc(-c2n[nH]c(=O)c3ccccc23)cc1S(=O)(=O)NCCN1CCOCC1,"inconclusive: 1.26 µM [inhibitor, single point]"
21,Cc1cc([N+](=O)[O-])ccc1NC(=S)NC(=O)C(c1ccccc1)c1ccccc1,"inconclusive: 35.5 µM [inhibitor, single point]"
22,CSc1ccc(CN2CCN(c3ccccc3C)CC2)cc1,"inconclusive: 17.8 µM [inhibitor, single point]"
23,Cc1cccc(-c2nc(Nc3ccc(N4CCOCC4)cc3)c3ccccc3n2)c1,"inconclusive: 10 µM [inhibitor, single point]"
